Measured values as given in patent US11485657B2, “Biological remediation of groundwater using an algal photobioreactor system” (priority 2019, dated 2022).

Assays:
C. subellipsoidea [1] = assay: Time-course degradation of organophosphates in growing C. subellipsoidea cultures, GC-MS; assay type: cell-based, Coccomyxa subellipsoidea; conditions: for level of organophosphate remaining in culture: 0.15 mg/mL f.c., between days 4 and 6 in culture, cell-dependent
C. subellipsoidea [2] = assay: Paraoxon degradation in heat-treated C. subellipsoidea cultures (spectrophotometric); assay type: cell-based, Coccomyxa subellipsoidea

## CCOP(=S)(OCC)Oc1cc(C)nc(C(C)C)n1 [diazinon]
C. subellipsoidea [1]
  level of organophosphate remaining in culture: essentially undetectable levels

## CCOC(=O)CC(SP(=S)(OC)OC)C(=O)OCC (stereo not shown) [malathion]
C. subellipsoidea [1]
  level of organophosphate remaining in culture: essentially undetectable levels

## CCOP(=O)(OCC)Oc1ccc([N+](=O)[O-])cc1 [paraoxon]
C. subellipsoidea [2]; 100° C. for 10 min, dark, 12 h
  paraoxon degradation by heat-treated cultures in the dark: unable to degrade paraoxon
C. subellipsoidea [2]; 100° C. for 10 min, light, 12 h
  paraoxon degradation by heat-treated cultures in the light: degraded paraoxon
C. subellipsoidea [2]; 100° C. for 10 min, paraoxon 0.25 mg/mL, light, after 24 h
  paraoxon degradation in heat-treated versus control cultures: increased paraoxon degradation
C. subellipsoidea [2]; paraoxon 0.25 mg/mL, light, p-nitrophenol monitored at 24 h and 48 h, versus samples oxidized 12 h
  paraoxon degradation in heat-treated non-oxidized samples: rapidly degraded
C. subellipsoidea [1]; paraoxon 0.17 mg/mL added, after 6 days, GC-MS
  level of paraoxon remaining in culture: < 0.025 mg/mL
